In all, about 220,000 compounds went through this assay and about 2,400 (1.1%) were called active. Inconclusive results, whose numbers are uncertain, are shown with a selection of clear calls. Calls follow the shape of the dose curve; as a rule, active = well fitted inhibition curve with a large enough effect; inconclusive = small, poorly fitted or top-dose-only effect, or effect the other way; inactive = no such curve, though single readings can be large or run the other way. Where the call is inconclusive, the potency comes from a doubtful curve fit.
Experiment: qHTS Multiplex Assay to Identify Dual Action Probes in a Cell Model of Huntington: Aggregate Formation (GFP); also: nearly all actives have a fitted effect of over 60% in size
Conditions: PC12 HttQ103-GFP aggregates, Acumen cytometry, 40 h; activity change, negative = inhibition: at 46.1 µM (top of the series) unless noted
Summary of the method: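 PC12 cells with ecdysone-inducible HTT exon1 Q103-GFP, induced by 100 nM tebufenozide, given compounds in a concentration series. GFP aggregates (1–25 um, 6 SD above background) counted in lysates by laser-scanning cytometry, 488 nm excitation.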
% is scaled to controls: 0 for no effect and ±100 for the full control effect; potency is read from the fitted curve at half-maximal effect.

**Q.** Which Potency does the source give for `C=CCNC(=O)/C(=C/c1cn(-c2ccccc2)nc1-c1cccc([N+](=O)[O-])c1)NC(=O)c1ccccc1` here?
**A.** inactive

**Q.** With `COC(=O)c1ccc(NC(=O)CN2C(=O)CCC2=O)cc1` as the compound, how does the activity change, negative = inhibition read?
**A.** inactive: -6.57% [at 9.22 µM]

**Q.** With `Cc1cc(C(=O)CSc2nc3ccccc3c(=O)n2C)c(C)n1Cc1ccc2c(c1)OCO2` as the compound, how does the Potency read?
**A.** active: 1 µM

**Q.** For `NS(=O)(=O)c1ccc(N2N=C(c3ccc(Br)cc3)CC2c2ccc(F)cc2)cc1` (stereo unspecified), which Potency is on record?
**A.** inconclusive: 35.5 µM [inhibitor, single point]

**Q.** Which Potency does the source give for `Cc1ccc(S(=O)(=O)NCc2cn3ccsc3n2)c(C)c1` here?
**A.** inconclusive: 35.5 µM [inhibitor, single point]

**Q.** For `Cc1ccsc1C(=O)N1CC(=O)Nc2ccccc21`, which Potency is on record?
**A.** inactive

**Q.** With `CC1CC(C)(C)Nc2ccc(N=O)cc21` (stereo unspecified) as the compound, how does the Potency read?
**A.** inconclusive: 25.1 µM [inhibitor, single point]

**Q.** With `CN(Cc1ccc(Cl)s1)C(=O)CCl` as the compound, how does the Potency read?
**A.** inconclusive: 28.2 µM [inhibitor, single point]

**Q.** For `COc1cccc(N2C(=O)/C(=C\c3cccs3)NC2=S)c1`, which Potency is on record?
**A.** inconclusive: 2.82 µM [activator, single point]

**Q.** For `COc1ccccc1CCc1nnc(CCC(=O)NC(C)Cc2cccnc2)o1` (stereo unspecified), which activity change, negative = inhibition is on record?
**A.** inactive: 0.272% [at 9.22 µM]

**Q.** For `Cc1cc(C)nc(N(C#N)Cc2ccc([N+](=O)[O-])cc2)n1`, which activity change, negative = inhibition is on record?
**A.** inactive: 8.73% [at 9.22 µM]

**Q.** With `COc1ccc(C(=O)CC(=O)C(=O)NCCc2cccc(C)c2)cc1` as the compound, how does the Potency read?
**A.** inconclusive: 20 µM [inhibitor, single point]

**Q.** For `CCOC(=O)CSc1nc2ccccc2c(=O)n1CC`, which Potency is on record?
**A.** inactive

**Q.** For `OCCNc1nc(Nc2cccc(O)c2)nc2ccccc12`, which activity change, negative = inhibition is on record?
**A.** inactive: -11.1% [at 9.22 µM]

**Q.** For `COc1ccc(Cn2c(-c3ccc(OC)cc3)nc3ccccc32)cc1`, which Potency is on record?
**A.** inconclusive: 35.5 µM [inhibitor, single point]

**Q.** Which Potency does the source give for `CCN(CC)C(=S)S` here?
**A.** inconclusive: 11.2 µM [inhibitor, partial curve, poor fit]

**Q.** Which Potency does the source give for `Cc1ccc(C)c(-n2nnnc2SCC(=O)Nc2cccc(-c3nnc4n3CCCCC4)c2)c1` here?
**A.** inconclusive: 11.2 µM [inhibitor, partial curve]

**Q.** For `CS(=O)(=O)Nc1cccc2cccnc12`, which Potency is on record?
**A.** inconclusive: 5.62 µM [activator, single point]

**Q.** For `Cc1nn(Cc2ccc(Cl)c(Cl)c2)c(C)c1NC(=O)c1cc(-c2ccc3c(c2)OCO3)on1`, which Potency is on record?
**A.** inconclusive: 4.47 µM [inhibitor, full curve]

**Q.** With `N#CC(C#N)=NNc1ccc(S(=O)(=O)N2CCCCC2)cc1` as the compound, how does the Potency read?
**A.** active: 20 µM

**Q.** Which Potency does the source give for `O=C(N/N=C/c1cc([N+](=O)[O-])ccc1O)c1ccc2c(c1)OCCO2` here?
**A.** active: 14.1 µM

**Q.** With `O=C(Nc1ccc(Oc2cccc3ccccc23)cc1)c1ccco1` as the compound, how does the Potency read?
**A.** inconclusive: 17.8 µM [inhibitor, single point]

**Q.** With `COc1ccc(OC)c(C2=Nn3c(nnc3-c3cccc(OC(C)C)c3)SC2)c1` as the compound, how does the Potency read?
**A.** inconclusive: 35.5 µM [inhibitor, single point]

**Q.** Which Potency does the source give for `CC1CCc2nc(NC(=O)C3COc4ccccc4O3)sc2C1` (stereo unspecified) here?
**A.** inconclusive: 22.4 µM [inhibitor, single point]

**Q.** For `Cc1ccc(NC(=O)CCCc2nc3ccccc3s2)c(O)c1`, which Potency is on record?
**A.** inconclusive: 35.5 µM [activator, partial curve, poor fit]

**Q.** Which Potency does the source give for `Cc1nnc(SC(=O)N2c3ccccc3Sc3ccccc32)s1` here?
**A.** inconclusive: 35.5 µM [inhibitor, single point]

**Q.** For `C=C(C)CNC(=S)Nc1cccc2cnccc12`, which Potency is on record?
**A.** inconclusive: 20 µM [inhibitor, single point]

**Q.** Which Potency does the source give for `O=C(CSc1ccc2ccccc2n1)N1CCC(c2noc3ccc(F)cc23)CC1` here?
**A.** inconclusive: 35.5 µM [inhibitor, single point]

**Q.** Which activity change, negative = inhibition does the source give for `O=c1cc(O)c2ccc(O)cc2o1` here?
**A.** inactive: 5.04% [at 9.22 µM]

**Q.** With `Cn1nnnc1SC1CC(=O)N(c2ccccc2)C1=O` (stereo unspecified) as the compound, how does the Potency read?
**A.** inconclusive: 15.8 µM [inhibitor, single point]

**Q.** With `O=C(C(c1ccccc1)c1ccccc1)N1CCCc2ccccc21` as the compound, how does the Potency read?
**A.** inconclusive: 17.8 µM [inhibitor, single point]

**Q.** Which Potency does the source give for `O=C(N=Nc1c(O)[nH]c2ccccc12)c1cccc(S(=O)(=O)Nc2ccccc2Cl)c1` here?
**A.** inactive

**Q.** Which Potency does the source give for `Cc1ccc(NC(=O)C(OC(=O)c2ccc(C=O)cc2)c2ccccc2)cc1Cl` (stereo unspecified) here?
**A.** inactive

**Q.** With `Cc1ccccc1Oc1nc2c(C)cccn2c(=O)c1/C=C(\C#N)C(=O)Nc1c(C)n(C)n(-c2ccccc2)c1=O` as the compound, how does the Potency read?
**A.** inconclusive: 35.5 µM [inhibitor, single point]

**Q.** With `Nc1nc(Nc2ccccc2)sc1C(=O)c1ccccc1` as the compound, how does the activity change, negative = inhibition read?
**A.** inactive: 15.8% [at 9.22 µM]

**Q.** For `CCOc1ccc(N=c2oc3cc(O)ccc3cc2C(=O)NCC2CCCO2)cc1` (stereo unspecified), which Potency is on record?
**A.** inconclusive: 12.6 µM [activator, partial curve, poor fit]

**Q.** With `c1ccc(CN2CCC(Nc3nc(-c4cccs4)nc4ccccc34)CC2)cc1` as the compound, how does the Potency read?
**A.** inconclusive: 35.5 µM [inhibitor, single point]

**Q.** With `Cc1cc(=O)[nH]c(SCC(=O)c2ccccc2)c1C#N` as the compound, how does the Potency read?
**A.** inactive

**Q.** With `COc1ccc(C(=O)N/N=C(\Cc2ncc[nH]2)c2ccccc2)cc1` as the compound, how does the Potency read?
**A.** inconclusive: 7.94 µM [inhibitor, partial curve]

**Q.** Which Potency does the source give for `Cc1cc(N2CCN(C/C=C/c3ccccc3)CC2)n2ncnc2n1` here?
**A.** active: 3.55 µM

**Q.** For `CN(C)c1ccnc(Oc2ccc(Cl)cc2)c1C#N`, which Potency is on record?
**A.** inconclusive: 17.8 µM [inhibitor, single point]

**Q.** With `Cc1ccc(NC(C)C(=O)N/N=C/c2ccc([N+](=O)[O-])s2)cc1` (stereo unspecified) as the compound, how does the Potency read?
**A.** inconclusive: 14.1 µM [inhibitor, single point]

**Q.** For `O=c1c2ccccc2nnn1Cc1ccc(Br)cc1`, which Potency is on record?
**A.** inconclusive: 22.4 µM [activator, single point]

**Q.** For `S=C(NC1CCCCC1)N1CCN(C2CCCCC2)CC1`, which Potency is on record?
**A.** inactive

**Q.** With `CCN(CC)c1ccc(N=Nc2nn(C)c(C)c2[N+](=O)[O-])cc1` as the compound, how does the Potency read?
**A.** inactive

**Q.** Which Potency does the source give for `OCC1CCCN(c2ncnc3scc(-c4ccccc4)c23)C1` (stereo unspecified) here?
**A.** inconclusive: 11.2 µM [inhibitor, single point]

Source: PubChem BioAssay AID1688 (National Center for Advancing Translational Sciences (NCATS), 2009)
